Test results published in publication PMC7817816.
No constants are given. Whether binding was seen depends on the method and setting. In cells and extracts the contact can be indirect. Some entries that bind do so weakly or less than the wild type.

The chains behind the UniProt entries cited, without tags or fusion partners.
UniProt Q13950: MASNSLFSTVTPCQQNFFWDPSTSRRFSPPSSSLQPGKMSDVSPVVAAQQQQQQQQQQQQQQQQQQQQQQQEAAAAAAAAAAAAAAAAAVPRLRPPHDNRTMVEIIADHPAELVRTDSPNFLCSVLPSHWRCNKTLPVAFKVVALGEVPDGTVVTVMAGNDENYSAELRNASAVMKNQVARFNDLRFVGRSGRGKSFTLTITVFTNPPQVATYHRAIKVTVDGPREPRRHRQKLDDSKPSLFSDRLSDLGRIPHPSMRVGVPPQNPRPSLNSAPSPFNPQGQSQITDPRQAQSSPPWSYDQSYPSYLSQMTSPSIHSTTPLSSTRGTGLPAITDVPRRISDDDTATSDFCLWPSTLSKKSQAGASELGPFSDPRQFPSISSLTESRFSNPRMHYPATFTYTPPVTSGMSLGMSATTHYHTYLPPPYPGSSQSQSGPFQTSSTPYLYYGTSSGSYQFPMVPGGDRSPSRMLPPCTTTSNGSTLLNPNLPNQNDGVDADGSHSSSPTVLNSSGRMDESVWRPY

Molecular target: Myc-RUNX2 (Runt-related transcription factor 2) (UniProt Q13950)
Experiment: co-IP; CHIP and RUNX2 with or without overexpression of TRIM16; IP with anti-Myc, probed with anti-Flag

## Flag-CHIP (carboxy terminus of HSP70 interacting protein) (from UniProt Q9UNE7-1 1-303)
  binding: binds
